In article PMC9816929:
No constants are given. Whether binding was seen depends on the method and setting. Binding seen in cells or lysates may run through a third protein. Some results given as binding are weak or reduced against the parent protein; the word gives no strength.

Protein sequences, listed by entry. Tags and fused reporters are not part of them.
UniProt P35222: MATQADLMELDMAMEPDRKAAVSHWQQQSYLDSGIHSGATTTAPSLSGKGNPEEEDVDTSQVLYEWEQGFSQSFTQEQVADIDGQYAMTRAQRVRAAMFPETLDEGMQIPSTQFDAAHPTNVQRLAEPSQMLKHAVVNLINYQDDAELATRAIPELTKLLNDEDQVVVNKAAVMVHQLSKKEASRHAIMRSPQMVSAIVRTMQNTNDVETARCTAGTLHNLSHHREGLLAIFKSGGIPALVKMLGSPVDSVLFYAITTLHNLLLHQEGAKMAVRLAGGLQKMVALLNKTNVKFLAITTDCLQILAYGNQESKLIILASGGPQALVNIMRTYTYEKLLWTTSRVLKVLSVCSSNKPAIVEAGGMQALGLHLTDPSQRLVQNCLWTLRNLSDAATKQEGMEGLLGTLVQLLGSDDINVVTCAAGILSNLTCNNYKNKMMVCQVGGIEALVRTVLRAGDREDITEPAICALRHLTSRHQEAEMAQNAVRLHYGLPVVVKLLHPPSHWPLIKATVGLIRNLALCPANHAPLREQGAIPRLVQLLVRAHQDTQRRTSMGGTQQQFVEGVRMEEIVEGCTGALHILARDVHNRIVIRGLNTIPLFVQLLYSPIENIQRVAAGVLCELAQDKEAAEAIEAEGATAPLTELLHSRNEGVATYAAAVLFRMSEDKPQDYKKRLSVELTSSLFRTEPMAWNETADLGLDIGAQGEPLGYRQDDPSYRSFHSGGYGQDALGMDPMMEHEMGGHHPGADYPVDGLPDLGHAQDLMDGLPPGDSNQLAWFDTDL
UniProt Q9H1B7: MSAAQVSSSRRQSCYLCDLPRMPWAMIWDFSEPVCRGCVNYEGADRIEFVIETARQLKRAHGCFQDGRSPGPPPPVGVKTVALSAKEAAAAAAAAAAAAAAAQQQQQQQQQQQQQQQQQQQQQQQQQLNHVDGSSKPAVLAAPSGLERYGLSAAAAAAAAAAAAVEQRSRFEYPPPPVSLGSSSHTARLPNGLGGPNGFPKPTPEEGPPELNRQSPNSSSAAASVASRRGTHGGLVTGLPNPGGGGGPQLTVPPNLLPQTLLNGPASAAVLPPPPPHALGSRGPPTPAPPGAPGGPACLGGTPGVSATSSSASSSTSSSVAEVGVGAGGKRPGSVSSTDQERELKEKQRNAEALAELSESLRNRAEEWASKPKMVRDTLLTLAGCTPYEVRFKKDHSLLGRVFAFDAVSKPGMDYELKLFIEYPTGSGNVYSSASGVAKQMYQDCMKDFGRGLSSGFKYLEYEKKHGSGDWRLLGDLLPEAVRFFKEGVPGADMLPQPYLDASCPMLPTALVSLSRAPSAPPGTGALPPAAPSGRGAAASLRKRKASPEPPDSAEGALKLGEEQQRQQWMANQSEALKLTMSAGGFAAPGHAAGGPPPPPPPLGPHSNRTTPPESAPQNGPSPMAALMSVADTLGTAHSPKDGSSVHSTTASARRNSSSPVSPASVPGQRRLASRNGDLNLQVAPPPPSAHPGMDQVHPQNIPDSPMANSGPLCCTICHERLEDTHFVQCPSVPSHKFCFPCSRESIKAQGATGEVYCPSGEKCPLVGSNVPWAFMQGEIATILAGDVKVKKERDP

Target: β-catenin (human (in human chondrocytes)) (UniProt P35222)
Test: co-IP; co-immunoprecipitation in human chondrocytes (HCs); which protein was precipitated is not told

Interferon Regulatory Factor 2 Binding Protein Like (IRF2BPL) (from UniProt Q9H1B7 1-796)
binding: binds
